# Experimental data published in patent publication US4029881A, “Antibiotic 9-acyl-3"-thiomethoxymethyl-SF-837 composition and process for preparing the same” (Meiji Seika Co., Ltd., priority 1972, dated 1977).
# Test: panel tests on the bitter taste
# Conditions: 10% by weight dry syrup in sucrose, 100-200 mg each; 10 persons; 0 undetectable, 1 negligible, 2 bitter (acceptable), 3 bitter (unacceptable), 4 bitter (objectionable)
structure (smiles),measurement,value
CCC(=O)OC1CC(=O)OC(C)CC=CC=CC(O)C(C)CC(CC=O)C(OC2OC(C)C(OC3CC(C)(O)C(OC(=O)CC)C(C)O3)C(N(C)C)C2O)C1OC (stereo not shown) [SF-837],Mean Scores (bitter taste),3.6 point
